Experiment: Friction properties of lubricant-coated hard disk (friction coefficient against number of sliding motions)
Conditions: lubricant layer 10 Å
[1] = sliding time 1, dip solvent Vertrel XF
[2] = sliding time 50, dip solvent Vertrel XF
[3] = sliding time 100, dip solvent Vertrel XF
[4] = sliding time 1, dip solvent EtOH/Hexane
[5] = sliding time 50, dip solvent EtOH/Hexane
[6] = sliding time 100, dip solvent EtOH/Hexane

Compound	Friction coefficient [1]	Friction coefficient [2]	Friction coefficient [3]	Friction coefficient [4]	Friction coefficient [5]	Friction coefficient [6]
NCCC(F)(F)C(F)(F)C(F)(F)C(F)(F)C(F)(F)C(F)(F)C(F)(F)C(F)(F)F.O=C(O)C(F)(F)OC(F)(F)C(F)(F)OC(F)(F)C(F)(F)OC(F)(F)C(F)(F)C(F)(F)C(F)(F)F [Ex. 4, 1H,1H,2H,2H-perfluorodecylamine-perfluoro-3,6,9-trioxatridecanoic acid salt]	0.16	0.17	0.18			
NCCC(F)(F)C(F)(F)C(F)(F)C(F)(F)C(F)(F)C(F)(F)C(F)(F)C(F)(F)F.O=S(=O)(O)C(F)(F)C(F)(F)C(F)(F)C(F)(F)F [compound 2, 1H,1H,2H,2H-perfluorodecylamine-perfluorobutane sulfonic acid salt, reference compound]				0.25	0.31	0.40
NCCOCC(F)(F)OC(F)(F)C(F)(F)OC(F)(F)C(F)(F)OC(F)(F)C(F)(F)C(F)(F)C(F)(F)F.O=S(=O)(O)C(F)(F)C(F)(F)C(F)(F)C(F)(F)F [Ex. 3, PFTEG amine-perfluorobutane sulfonic acid salt]	0.18	0.18	0.19			
octylamine-PFTEG sulfonic Acid Salt [Comp. Ex. 1, reference compound]				0.18	0.44	0.55
NCCOCC(F)(F)OC(F)(F)C(F)(F)OC(F)(F)C(F)(F)OC(F)(F)C(F)(F)C(F)(F)C(F)(F)F.O=S(=O)(O)CCCOCC(F)(F)OC(F)(F)C(F)(F)OC(F)(F)C(F)(F)OC(F)(F)C(F)(F)C(F)(F)C(F)(F)F [Ex. 1, PFTEG amine-PFTEG sulfonic acid salt]	0.18	0.26	0.28			
octadecylamine-perfluoroheptanoic Acid Salt [compound 3, reference compound]				0.55	0.53	0.33
NCCOCC(F)(F)OC(F)(F)C(F)(F)OC(F)(F)C(F)(F)OC(F)(F)C(F)(F)C(F)(F)C(F)(F)F.O=S(=O)(NS(=O)(=O)C(F)(F)C(F)(F)C(F)(F)C(F)(F)F)C(F)(F)C(F)(F)C(F)(F)C(F)(F)F [Ex. 5, PFTEG amine-bis(perfluorobutanesulfonyl)imide salt]	0.16	0.17	0.17			
